Here are results for 4 molecules from article PMC6368627.

The chains behind the UniProt entries cited, without tags or fusion partners.
UniProt Q01338: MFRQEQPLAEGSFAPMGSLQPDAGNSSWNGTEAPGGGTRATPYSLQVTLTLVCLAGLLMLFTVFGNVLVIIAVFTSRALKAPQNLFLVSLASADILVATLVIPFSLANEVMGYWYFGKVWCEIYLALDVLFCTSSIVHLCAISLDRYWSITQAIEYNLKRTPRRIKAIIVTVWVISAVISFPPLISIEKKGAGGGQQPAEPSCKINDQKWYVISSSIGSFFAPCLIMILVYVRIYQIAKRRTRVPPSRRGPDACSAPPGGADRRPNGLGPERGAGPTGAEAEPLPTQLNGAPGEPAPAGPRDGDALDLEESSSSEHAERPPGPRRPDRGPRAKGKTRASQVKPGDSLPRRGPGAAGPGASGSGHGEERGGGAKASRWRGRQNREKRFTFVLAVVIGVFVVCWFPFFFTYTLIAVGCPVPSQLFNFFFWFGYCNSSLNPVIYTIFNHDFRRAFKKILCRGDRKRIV
UniProt Q61016: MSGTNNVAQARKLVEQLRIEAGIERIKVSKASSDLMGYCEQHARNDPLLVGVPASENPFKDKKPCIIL
UniProt P63216: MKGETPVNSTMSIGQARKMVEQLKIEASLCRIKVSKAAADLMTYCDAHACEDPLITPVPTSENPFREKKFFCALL

Results are given in words; binding and its absence hold for the method and conditions named. In cells and extracts the contact can be indirect. A yes stands for co-enrichment or nearness to the bait. Other partners may have been found. For part of these data: A no says only that the protein was not detected with the bait.

Test [1] has as its target FLAG-α2a adrenergic receptor (transgenic mouse, Dbh promoter, on α2aAR knockout background) (UniProt Q01338). The experiment in a line: affinity purification with mass spectrometry; co-IP with anti-FLAG from synaptosomes of FLAG-α2aAR mice stimulated with 100 µM epinephrine, DSP cross-linked; eluted with FLAG peptide, TCA-precipitated, trypsin-digested, quantitative MRM; controls KO no epi, FLAG-α2aAR no epi, KO + epi.

Test [2] concerns the target Hemagglutinin tagged (HA)-α2a adrenergic receptor (knock-in mouse) (mouse) (UniProt Q01338). As to the kind of experiment: affinity purification with mass spectrometry; co-IP with anti-HA from synaptosomes of HA-α2aAR mice stimulated with 100 µM epinephrine, DSP cross-linked; Gβ and Gγ bands excised from SDS-PAGE gel, quantitative MRM with heavy labeled peptides; controls WT no epi, HA-α2aAR no epi, WT + epi.

For the molecule “G protein γ7 subunit (from UniProt Q61016 1-68)”, the binding entry in test [1] is recorded as “no binding”.

Take “G protein γ3 subunit (from UniProt P63216 1-75)”: the binding entry in test [2] and in test [1] was “binds” throughout.

B1: G protein γ13 subunit (protein, UniProt Q9JMF3 1-67)
chain: MEEWDVPQMKKEVESLKYQLAFKREMSSKTIPELLKWIEDGIPKDPFLNPDLMKNNPWVEKAKCTIL
In the case of B1, the binding result in test [1] was “no binding”.

B2: G protein γ4 subunit (protein, UniProt P50153 1-75)
chain: MKEGMSNNSTTSISQARKAVEQLKMEACMDRVKVSQAASDLLAYCEAHVREDPLIIPVPASENPFREKKFFCTIL
Turning to B2, the binding result in test [2] and in test [1] was “binds” throughout.
